According to patent US7718676B2, “2-aminoaryloxazole compounds as tyrosine kinase inhibitors” (AB Science, priority 2003, dated 2010):
Some of these results come from one statement about several compounds together.

Protein sequences, listed by entry. Tags and fused reporters are not part of them. Lines headed by an entry give the natural chain unless they say otherwise; changes in a name come on top. Chains listed by the source or under a name are the forms on record and can include a tag or linker.
UniProt P05532, with tags, fused parts or gaps DEL551-559: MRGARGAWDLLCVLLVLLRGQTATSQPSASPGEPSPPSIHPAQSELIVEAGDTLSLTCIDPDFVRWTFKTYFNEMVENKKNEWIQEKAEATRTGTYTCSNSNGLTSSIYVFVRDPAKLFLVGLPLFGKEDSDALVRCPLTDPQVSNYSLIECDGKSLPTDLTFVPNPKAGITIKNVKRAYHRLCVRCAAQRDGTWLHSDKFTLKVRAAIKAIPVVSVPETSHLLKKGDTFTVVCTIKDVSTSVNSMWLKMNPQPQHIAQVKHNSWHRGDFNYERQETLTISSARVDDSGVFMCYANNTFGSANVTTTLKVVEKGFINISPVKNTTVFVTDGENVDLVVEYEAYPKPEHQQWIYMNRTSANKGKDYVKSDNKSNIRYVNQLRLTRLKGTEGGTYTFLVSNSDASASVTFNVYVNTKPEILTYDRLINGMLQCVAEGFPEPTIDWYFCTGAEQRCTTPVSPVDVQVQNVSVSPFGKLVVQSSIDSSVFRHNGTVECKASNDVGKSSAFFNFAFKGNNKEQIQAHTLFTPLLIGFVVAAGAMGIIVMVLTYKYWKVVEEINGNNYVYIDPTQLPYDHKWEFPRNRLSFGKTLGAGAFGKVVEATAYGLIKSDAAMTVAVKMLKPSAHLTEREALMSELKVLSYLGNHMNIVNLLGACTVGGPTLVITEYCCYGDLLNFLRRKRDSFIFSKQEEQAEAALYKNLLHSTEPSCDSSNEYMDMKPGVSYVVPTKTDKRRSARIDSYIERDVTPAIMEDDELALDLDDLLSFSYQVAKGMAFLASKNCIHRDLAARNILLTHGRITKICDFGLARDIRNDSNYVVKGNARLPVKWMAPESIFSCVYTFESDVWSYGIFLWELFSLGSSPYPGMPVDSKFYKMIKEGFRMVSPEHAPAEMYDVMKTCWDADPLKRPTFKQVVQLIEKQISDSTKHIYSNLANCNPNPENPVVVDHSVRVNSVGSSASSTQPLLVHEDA

Tests used:
[1] = biological target: c-Kit JM Δ27 (Mus musculus, UniProt P05532); assay: In vitro TK inhibition, proliferation assay ([3H] thymidine incorporation), c-Kit JM Δ27; type: cell-based, murine; details: c-Kit JM Δ27 (juxtamembrane deletion); Ba/F3 mkitΔ27
[2] = biological target: c-Kit WT (UniProt P10721); assay: In vitro TK inhibition, proliferation assay ([3H] thymidine incorporation), c-Kit WT; type: cell-based; details: Ba/F3 murine kit and human kit cells
[3] = biological target: T1, c-Kit D816V (Homo sapiens, UniProt P10721, D816V); assay: In vitro TK inhibition, proliferation assay ([3H] thymidine incorporation), c-Kit D816V; type: cell-based; details: hkitD816V
T1 construct: expressed in transfected cells; host or cells: Ba/F3 (murine IL-3 dependent proB lymphoid cells)

| Structure (SMILES) | IC50 [1] [nM] | IC50 [2] [nM] | IC50 [3] [nM] |
| --- | --- | --- | --- |
| Cc1ccc(NC(=O)Nc2ccc(C)c(Nc3ncc(-c4cccnc4)o3)c2)cc1 [Compound 003, 1-[4-Methyl-3-(5-pyridin-3-yl-oxazol-2-ylamino)-phenyl]-3-p-tolyl-urea] | < 1000 |  |  |
| Cc1ccc(NC(=O)Nc2ccc(C#N)cc2)cc1Nc1ncc(-c2cccnc2)o1 [Compound 004, 1-(4-Cyano-phenyl)-3-[4-methyl-3-(5-pyridin-3-yl-oxazol-2-ylamino)-phenyl]-urea] | < 1000 |  |  |
| Cc1ccc(NC(=O)Nc2ccc(F)cc2)cc1Nc1ncc(-c2cccnc2)o1 [Compound 005, 1-(4-Fluoro-phenyl)-3-[4-methyl-3-(5-pyridin-3-yl-oxazol-2-ylamino)-phenyl]-urea] | < 1000 | < 1000 |  |
| Cc1ccc(NC(=O)Nc2ccccc2F)cc1Nc1ncc(-c2cccnc2)o1 [Compound 006, 1-(2-Fluoro-phenyl)-3-[4-methyl-3-(5-pyridin-3-yl-oxazol-2-ylamino)-phenyl]-urea] | < 1000 | < 1000 |  |
| Cc1ccc(NC(=O)Nc2ccc(C(F)(F)F)cc2)cc1Nc1ncc(-c2cccnc2)o1 [Compound 007, 1-[4-Methyl-3-(5-pyridin-3-yl-oxazol-2-ylamino)-phenyl]-3-(4-trifluoromethyl-phenyl)-urea] | < 1000 |  |  |
| Cc1ccc(NC(=O)Nc2ccc(Cl)cc2)cc1Nc1ncc(-c2cccnc2)o1 [Compound 008, 1-(4-Chloro-phenyl)-3-[4-methyl-3-(5-pyridin-3-yl-oxazol-2-ylamino)-phenyl]-urea] | < 1000 | < 1000 |  |
| Cc1ccc(NC(=O)c2ccc(CN3CCN(C)CC3)cc2)cc1Nc1ncc(-c2cccnc2)o1 [Compound 009, 4-(4-Methyl-piperazin-1-ylmethyl)-N-[4-methyl-3-(5-pyridin-3-yl-oxazol-2-ylamino)-phenyl]-benzamide] | < 1000 | < 1000 |  |
| Cc1ccc(NC(=O)c2cccc(N(C)C)c2)cc1Nc1ncc(-c2cccnc2)o1 [Compound 010, 3-Dimethylamino-N-[4-methyl-3-(5-pyridin-3-yl-oxazol-2-ylamino)-phenyl]-benzamide] | < 1000 | < 1000 |  |
| Cc1ccc(NC(=O)c2cccc(Br)c2)cc1Nc1ncc(-c2cccnc2)o1 [Compound 011, 3-Bromo-N-[4-methyl-3-(5-pyridin-3-yl-oxazol-2-ylamino)-phenyl]-benzamide] | < 1000 | < 1000 |  |
| Cc1ccc(NC(=O)OCC(C)C)cc1Nc1ncc(-c2cccnc2)o1 [Compound 012, [4-Methyl-3-(5-pyridin-3-yl-oxazol-2-ylamino)-phenyl]-carbamic acid isobutyl ester] | < 1000 |  |  |
| CCOCC(=O)Nc1ccc(C)c(Nc2ncc(-c3cccnc3)o2)c1 [Compound 019, 2-Ethoxy-N-[4-methyl-3-(5-pyridin-3-yl-oxazol-2-ylamino)-phenyl]-acetamide] | < 1000 | < 1000 |  |
| Cc1ccc(NC(=S)Nc2ccc(C#N)cc2)cc1Nc1ncc(-c2cccnc2)o1 [Compound 022, 1-(4-Cyano-phenyl)-3-[4-methyl-3-(5-pyridin-3-yl-oxazol-2-ylamino)-phenyl]-thiourea] | < 1000 |  |  |
| Cc1ccc(NC(=S)Nc2ccc(C#N)cc2)cc1Nc1ncc(-c2ccncc2)o1 [Compound 023, 1-(4-Cyano-phenyl)-3-[4-methyl-3-(5-pyridin-4-yl-oxazol-2-ylamino)-phenyl]-thiourea] |  | < 1000 | ≤ 1000 |
| Cc1ccc(NC(=S)NCc2ccccc2)cc1Nc1ncc(-c2ccncc2)o1 [Compound 025, 1-Benzyl-3-[4-methyl-3-(5-pyridin-4-yl-oxazol-2-ylamino)-phenyl]-thiourea] |  | < 1000 | ≤ 1000 |
| COc1ccc(NC(=O)c2cccc(C(F)(F)F)c2)cc1Nc1ncc(-c2cccnc2)o1 [Compound 026, N-[4-Methoxy-3-(5-pyridin-3-yl-oxazol-2-ylamino)-phenyl]-3-trifluoromethyl-benzamide] |  | < 1000 | ≤ 1000 |
| Cc1ccc(NC(=O)c2ccc(NCCCN(C)C)c(C(F)(F)F)c2)cc1Nc1ncc(-c2cccnc2)o1 [Compound 027, 4-(3-Dimethylamino-propylamino)-N-[4-methyl-3-(5-pyridin-3-yl-oxazol-2-ylamino)-phenyl]-3-trifluoromethyl-benzamide] |  | < 1000 |  |
| O=C(Nc1ccc(F)c(Nc2ncc(-c3cccnc3)o2)c1)c1cccc(C(F)(F)F)c1 [Compound 028, N-[4-Fluoro-3-(5-pyridin-3-yl-oxazol-2-ylamino)-phenyl]-3-trifluoromethyl-benzamide] |  | < 1000 |  |
| Cc1ccc(NC(=O)c2ccc3cc[nH]c3c2)cc1Nc1ncc(-c2ccncc2)o1 [Compound 029, 1H-Indole-6-carboxylic acid [4-methyl-3-(5-pyridin-4-yl-oxazol-2-ylamino)-phenyl]-amide] |  | < 1000 | ≤ 1000 |
| COc1cc(OC)cc(C(=O)Nc2ccc(C)c(Nc3ncc(-c4ccncc4)o3)c2)c1 [Compound 032, 3,5-Dimethoxy-N-[4-methyl-3-(5-pyridin-4-yl-oxazol-2-ylamino)-phenyl]-benzamide] |  | < 1000 | ≤ 1000 |

| Structure (SMILES) | IC50 [1] [nM] | IC50 [2] [nM] | IC50 [3] [nM] |
| --- | --- | --- | --- |
| O=C(Nc1cccc(Nc2ncc(-c3cccnc3)o2)c1)c1cccc(C(F)(F)F)c1 [Compound 033, N-[3-(5-Pyridin-3-yl-oxazol-2-ylamino)-phenyl]-3-trifluoromethyl-benzamide] |  | < 1000 |  |
| Cc1ccc(NC(=O)c2ccc(CN3CCN(C)CC3)c(F)c2)cc1Nc1ncc(-c2cccnc2)o1 [Compound 035, 3-Fluoro-4-(4-methyl-piperazin-1-ylmethyl)-N-[4-methyl-3-(5-pyridin-3-yl-oxazol-2-ylamino)-phenyl]-benzamide] |  | < 1000 | ≤ 1000 |
| O=C(Nc1ccc(Cl)c(Nc2ncc(-c3cccnc3)o2)c1)c1cccc(C(F)(F)F)c1 [Compound 036, N-[4-Chloro-3-(5-pyridin-3-yl-oxazol-2-ylamino)-phenyl]-3-trifluoromethyl-benzamide] |  | < 1000 | ≤ 1000 |
| Cc1ccc(NC(=O)c2cnoc2C)cc1Nc1ncc(-c2ccncc2)o1 [Compound 038, 5-Methyl-isoxazole-4-carboxylic acid [4-methyl-3-(5-pyridin-4-yl-oxazol-2-ylamino)-phenyl]-amide] |  | < 1000 | ≤ 1000 |
| Cc1ccc(NC(=O)c2ccc(C#N)cc2)cc1Nc1ncc(-c2ccncc2)o1 [Compound 039, 4-Cyano-N-[4-methyl-3-(5-pyridin-4-yl-oxazol-2-ylamino)-phenyl]-benzamide] |  | < 1000 | ≤ 1000 |
| Cc1ccc(NC(=O)c2ccncc2)cc1Nc1ncc(-c2cccnc2)o1 [Compound 040, N-[4-Methyl-3-(5-pyridin-3-yl-oxazol-2-ylaniino)-phenyl]-isonicotinamide] |  | < 1000 |  |
| Cc1ccc(NC(=O)c2cccc(C(F)(F)F)c2)cc1Nc1nc(-c2cccnc2)co1 [Compound 041, N-[4-Methyl-3-(4-pyridin-3-yl-oxazol-2-ylamino)-phenyl]-3-trifluoromethyl-benzamide] |  | < 1000 | ≤ 1000 |
| Cc1ccc(NC(=O)OCC(C)C)cc1Nc1ncc(-c2ccncc2)o1 [Compound 042, [4-Methyl-3-(5-pyridin-4-yl-oxazol-2-ylamino)-phenyl]-carbamic acid isobutyl ester] | < 1000 | < 1000 | ≤ 1000 |
| Cc1cccc(CC(=O)Nc2ccc(C)c(Nc3ncc(-c4ccncc4)o3)c2)c1 [Compound 043, N-[4-Methyl-3-(5-pyridin-4-yl-oxazol-2-ylamino)-phenyl]-2-m-tolyl-acetamide] |  | < 1000 | ≤ 1000 |
| COc1ccc(NC(=O)Cc2ccc(F)cc2)cc1Nc1ncc(-c2ccncc2)o1 [Compound 044, 2-(4-Fluoro-phenyl)-N-[4-methoxy-3-(5-pyridin-4-yl-oxazol-2-ylamino)-phenyl]-acetamide] |  | < 1000 | ≤ 1000 |
| Cc1ccc(NC(=O)Cc2ccc(F)cc2)cc1Nc1ncc(-c2cccnc2)o1 [Compound 048, 2-(4-Fluoro-phenyl)-N-[4-methyl-3-(5-pyridin-3-yl-oxazol-2-ylamino)-phenyl]-acetamide] |  | < 1000 |  |
| Cc1ccc(NC(=O)CCC(C)C)cc1Nc1ncc(-c2cccnc2)o1 [Compound 050, 4-Methyl-pentanoic acid [4-methyl-3-(5-pyridin-3-yl-oxazol-2-ylamino)-phenyl]-amide] | < 1000 | < 1000 |  |
| COc1ccc(CC(=O)Nc2ccc(C)c(Nc3ncc(-c4ccncc4)o3)c2)cc1 [Compound 056, 2-(4-Methoxy-phenyl)-N-[4-methyl-3-(5-pyridin-4-yl-oxazol-2-ylamino)-phenyl]-acetamide] |  | < 1000 |  |
| Cc1ccc(NS(=O)(=O)Cc2ccccc2)cc1Nc1ncc(-c2ccncc2)o1 [Compound 057, N-[4-Methyl-3-(5-pyridin-4-yl-oxazol-2-ylamino)-phenyl]-C-phenyl-methanesulfon-amide] |  | < 1000 |  |
| Cc1ccc(C(=O)Nc2cccc(N(C)C)c2)cc1Nc1ncc(-c2ccncc2)o1 [Compound 059, N-(3-Dimethylamino-phenyl)-4-methyl-3-(5-pyridin-4-yl-oxazol-2-ylamino)-benzamide] |  | < 1000 | ≤ 1000 |
| Cc1ccc(NC(=O)c2ccc(C)c(Nc3ncc(-c4ccncc4)o3)c2)cc1F [Compound 061, N-(3-Fluoro-4-methyl-phenyl)-4-methyl-3-(5-pyridin-4-yl-oxazol-2-ylamino)-benzamide] |  | < 1000 |  |
| Cc1ccc(C(=O)Nc2cccc(Cl)c2)cc1Nc1ncc(-c2cccnc2)o1 [Compound 062, N-(3-Chloro-phenyl)-4-methyl-3-(5-pyridin-3-yl-oxazol-2-ylamino)-benzamide] |  | < 1000 |  |
| Cc1ccc(C(=O)NCc2ccccc2)cc1Nc1ncc(-c2ccncc2)o1 [Compound 063, N-Benzyl-4-methyl-3-(5-pyridin-4-yl-oxazol-2-ylamino)-benzamide] |  |  | ≤ 1000 |
